# Results reported in patent US8278355B2, “Isovaline for treatment of pain” (Therexcell Pharma Inc., priority 2006, dated 2012).
# Some of these results come from one statement about several compounds together.
# Tested on: strychnine-induced allodynia
# Format: in vivo, mouse
# Settings: cisterna magna; FIG. 2
# Method: Strychnine when administered alone to the intact rodent mimics the allodynia of chronic pain resulting from damage to inhibitory amino acid functions in the central nervous system.
# In the present example, injections into the cisterna magna of the mouse were performed as described by Reijneveld, Taphoorn, and Voerst (Journal of Neurooncology 42: 137-142, 1999). Each series of experiments consisted of 6 to 9 pairs of mice. […] In each session, two mice were injected with the strychnine solution within one minute of each other. […] A continuous video recording was made of all responses.
row,SMILES,duration of analgesic effects
1,"CCC(C)(N)C(=O)O (racemic) [(Ia), Isovaline (2-Amino-2-methylbutanoic acid)]",at least 60 minutes
2,"CCC(C)(N)C(=O)O (single isomer, unassigned) [(Ib), Isovaline (2-Amino-2-methylbutanoic acid)]",at least 60 minutes
